These are yes or no findings as the source states them, for the method shown. Some binding calls cover weakened binding; strength is not graded here.
Target: BCMA-His重组蛋白 (UniProt Q02223)
Assay: ELISA screen of clones on coated BCMA-His

The chains behind the UniProt entries cited, without tags or fusion partners. Residues count along the entry.
UniProt Q02223, residues 1-54: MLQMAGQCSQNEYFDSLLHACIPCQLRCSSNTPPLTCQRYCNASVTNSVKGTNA

B1: BCMA-12 粗提VHH抗体 (VHH, not shown: small tags and cut ends)
VHH: EVQLVESGGDSVQAGGSLRLSCAVSGYTDSKNLMGWFRQAPGKEREGVAVIYTGGGRPVYADSVKGRFTISQDSAKNTVYLQMNSLKPEDTALYYCAADYLGGAWPFGAYRYWGQGTQVTVSS
  binding: binds

— CN113265001A
